Experimental findings from PMC4530474, “Carbohydrate scaffolds as glycosyltransferase inhibitors with in vivo antibacterial activity” (Nature Communications, 2015) are described below.

Test [1] deals with E. coli ATCC 25922. Briefly: MIC determination (broth microdilution). The following applies: Escherichia coli, ATCC25922. On the technique in general: Dilution methods test growth across graded concentrations, often in twofold steps.
Test [2] concerns E. faecalis VanA, ci. The test is described as follows: MIC determination (broth microdilution). As to conditions: Enterococcus faecalis.

Turning to `CN[C@H](CC(C)C)C(=O)N[C@H]1C(=O)N[C@@H](CC(N)=O)C(=O)N[C@H]2C(=O)N[C@H]3C(=O)N[C@H](C(=O)N[C@H](C(=O)O)c4cc(O)cc(O)c4-c4cc3ccc4O)[C@H](O)c3ccc(c(Cl)c3)Oc3cc2cc(c3O[C@@H]2O[C@H](CO)[C@@H](O)[C@H](O)[C@H]2O[C@H]2C[C@](C)(N)[C@H](O)[C@H](C)O2)Oc2ccc(cc2Cl)[C@H]1O` [Vancomycin, reference compound], the MIC in test [1] and in test [2] was above 64 µg/mL in each case.
